Measured values from PMC10126281.
These are yes or no findings as the source states them, for the method shown. In cells and extracts the contact can be indirect. A result given as binding can be weak or reduced; the word gives no strength. Where a sequence is shown, tags or fusion partners need not be part of it.

Chains of the proteins cited; added tags and fusions are not shown. Lines headed by an entry give the natural chain unless they say otherwise; changes in a name come on top.
UniProt F4HUU5: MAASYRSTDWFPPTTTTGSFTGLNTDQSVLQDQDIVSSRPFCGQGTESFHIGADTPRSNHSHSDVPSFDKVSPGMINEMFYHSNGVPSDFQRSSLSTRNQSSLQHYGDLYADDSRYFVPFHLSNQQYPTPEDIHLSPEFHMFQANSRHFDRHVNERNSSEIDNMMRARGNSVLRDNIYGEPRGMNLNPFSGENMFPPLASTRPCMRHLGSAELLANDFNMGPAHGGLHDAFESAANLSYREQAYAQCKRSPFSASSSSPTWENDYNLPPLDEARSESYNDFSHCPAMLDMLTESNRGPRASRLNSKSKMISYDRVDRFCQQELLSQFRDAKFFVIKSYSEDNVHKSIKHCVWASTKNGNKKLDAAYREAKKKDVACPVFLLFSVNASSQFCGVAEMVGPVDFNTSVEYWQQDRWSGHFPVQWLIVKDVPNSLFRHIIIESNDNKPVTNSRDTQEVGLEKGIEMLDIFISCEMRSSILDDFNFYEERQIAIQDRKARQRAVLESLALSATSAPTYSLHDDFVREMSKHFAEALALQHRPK

T1: mYFP-ECT1 (Arabidopsis thaliana) (UniProt Q3MK94)
T1 sequence: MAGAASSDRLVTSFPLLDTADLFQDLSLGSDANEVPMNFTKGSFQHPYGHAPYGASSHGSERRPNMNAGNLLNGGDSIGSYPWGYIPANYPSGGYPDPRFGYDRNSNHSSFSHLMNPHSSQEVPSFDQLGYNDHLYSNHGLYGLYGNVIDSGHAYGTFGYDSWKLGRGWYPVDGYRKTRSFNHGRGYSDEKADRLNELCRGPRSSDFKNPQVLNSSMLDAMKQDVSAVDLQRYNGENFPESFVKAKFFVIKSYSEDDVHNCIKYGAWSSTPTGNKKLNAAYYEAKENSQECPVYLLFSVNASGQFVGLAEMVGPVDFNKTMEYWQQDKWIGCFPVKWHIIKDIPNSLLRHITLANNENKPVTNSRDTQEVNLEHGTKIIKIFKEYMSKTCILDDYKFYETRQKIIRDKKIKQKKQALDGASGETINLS


Assays:
[1] = target: T1, mYFP-ECT1 (Arabidopsis thaliana); assay: co-IP; ECT9-FLAG and mYFP-ECT1 co-expressed in N. benthamiana leaves for 48 h; lysis buffer 50 mM Tris-HCl pH 7.4, 150 mM NaCl, 0.2% NP40, 0.1% Triton-100, 20 mM DTT; GFP-Trap_A beads 2 h at 4 °C; immunoblot with anti-GFP and anti-FLAG
[2] = target: nLUC-ECT9 (EVOLUTIONARILY CONSERVED C-TERMINAL REGION 9) (Arabidopsis thaliana) (UniProt F4HUU5); assay: split reporter; Split Luciferase Complementation Assay (SLCA): nLUC-ECT9 combined with cLUC fusions of the other 12 Arabidopsis YTH family members; host and conditions not told

Row | Molecule | binding [1] | binding [2]
1 | ECT9-FLAG (Arabidopsis thaliana) | binds | 
2 | cLUC fusion of ECT2 (protein, UniProt Q9LJE5 1-667) MATVAPPADQATDLLQKLSLDSPAKASEIPEPNKKTAVYQYGGVDVHGQVPSYDRSLTPMLPSDAADPSVCYVPNPYNPYQYYNVYGSGQEWTDYPAYTNPEGVDMNSGIYGENGTVVYPQGYGYAAYPYSPATSPAPQLGGEGQLYGAQQYQYPNYFPNSGPYASSVATPTQPDLSANKPAGVKTLPADSNNVASAAGITKGSNGSAPVKPTNQATLNTSSNLYGMGAPGGGLAAGYQDPRYAYEGYYAPVPWHDGSKYSDVQRPVSGSGVASSYSKSSTVPSSRNQNYRSNSHYTSVHQPSSVTGYGTAQGYYNRMYQNKLYGQYGSTGRSALGYGSSGYDSRTNGRGWAATDNKYRSWGRGNSYYYGNENNVDGLNELNRGPRAKGTKNQKGNLDDSLEVKEQTGESNVTEVGEADNTCVVPDREQYNKEDFPVDYANAMFFIIKSYSEDDVHKSIKYNVWASTPNGNKKLAAAYQEAQQKAGGCPIFLFFSVNASGQFVGLAEMTGPVDFNTNVEYWQQDKWTGSFPLKWHIVKDVPNSLLKHITLENNENKPVTNSRDTQEVKLEQGLKIVKIFKEHSSKTCILDDFSFYEVRQKTILEKKAKQTQKQVSEEKVTDEKKESATAESASKESPAAVQTSSDVKVAENGSVAKPVTGDVVANGC |  | no binding

Continued, values first:

Row | binding [1] | binding [2] | Molecule
3 |  | binds | cLUC-ECT1 (EVOLUTIONARILY CONSERVED C-TERMINAL REGION 1) (protein, UniProt Q3MK94 1-428) MAGAASSDRLVTSFPLLDTADLFQDLSLGSDANEVPMNFTKGSFQHPYGHAPYGASSHGSERRPNMNAGNLLNGGDSIGSYPWGYIPANYPSGGYPDPRFGYDRNSNHSSFSHLMNPHSSQEVPSFDQLGYNDHLYSNHGLYGLYGNVIDSGHAYGTFGYDSWKLGRGWYPVDGYRKTRSFNHGRGYSDEKADRLNELCRGPRSSDFKNPQVLNSSMLDAMKQDVSAVDLQRYNGENFPESFVKAKFFVIKSYSEDDVHNCIKYGAWSSTPTGNKKLNAAYYEAKENSQECPVYLLFSVNASGQFVGLAEMVGPVDFNKTMEYWQQDKWIGCFPVKWHIIKDIPNSLLRHITLANNENKPVTNSRDTQEVNLEHGTKIIKIFKEYMSKTCILDDYKFYETRQKIIRDKKIKQKKQALDGASGETINLS
4 |  | no binding | cLUC fusion of ECT4 (protein, UniProt A0A1P8AS03 1-605) MSTVAPPADQAADVLKKLSLDSKSRTLEIPEPTKKTGVYQYGAMDSNGQVPSFDRSLSPMLPSDALDPSVFYVPNVYQQPYYYGYGSDYTGYTNSESVDMTSGAYGENASLVYPQGYGYAAFPYSPATSPAPQLGGDGQLYGAQQYQYPFPLTASSGPFASSVPASTQSKLSTNKAANSASAGIPKGMNGSAPVKPLNQSALYGNSALGGGLAAGYQDPRYSYDGFYTPVSWHDGSNFSDVQRSVSGSGVASSYSKANNNVPATRNQNSSSNSHYTSMYQPASMTGYAAQGYYDRVSPNKSYGQYGSTVRSGMGYGSSGYGSRTNERGWLNTDNKYRSRGRGNSYFYGNENIDGLNELNRGPRAKGTKATEEVSSEEVKKQTFDESNTEETVTCVLPDREECNRDDFPVEYKDAKFFIIKSYSEDDVHKSIKYNVWASTPNGNKKLDAAYQEAQQKSSGCPVFLFFSVNASGQFIGLAEMKGPVDFNKNIEYWQQDKWTGSFPLKWHILKDVPNSLLKHITLEYNENKPVTNSRDTQEVKLEQGLKVVKIFKEHNSKTCILDDFSFYEARQKTILEKKAKQQQSQKQVWEGKTNDEKPGTVDSTM
5 |  | no binding | cLUC fusion of ECT3 (protein, UniProt F4K1Z0 1-495) MANPDHVSDVLHNLSIDPTTKALAPDSETKLQGAYGGNGNDFLLNDELVEATKIGKPSLLSKDGGVTKDKGSNLKKLGYQSAAYNAKGSYGKGAYAYGYYPPAYQYPRHGYTGSYASGKTNLQYQYLTQQGRSAGNGQSYGGYMDNIYSNYGMCGPYTNGYGYGSYGYDSWKYMPNWYAVNNTYKPRNGYHGYGKENIEGLNEMNRGPRAKGFNSQDGSKVMAVSLKEQRVTETEKLSEDVSLLDPKDYNKIDFPETYTEAKFYVIKSYSEDDIHKSIKYSVWSSTPNGNKKLDASYNEAKQKSDGCPVFLLFSVNTSGQFVGLAEMVGPVDFNKTVEYWQQDKWIGCFPVKWHFVKDIPNSSLRHITLENNENKPVTNSRDTQEVKLEQGIKVIKIFKDHASKTCILDDFEFYENRQKIIQERKSKHLQIKKQTLVANADKGVMSKINLVKPQESTTASEDAAALGVAAEVTKESKVVKETELPVEKNAVATAC
